Reference: patent publication US8716288B2, “Composition comprising benproperine derivatives as active ingredients for preventing and treating angiogenesis-related diseases” (Korea Research Institute of Bioscience and Biotechnology, priority 2010, dated 2014)
Some entries share one result that the patent states for a list of compounds.

System: DLD-1 cell (human colorectal cancer cell line in which PRL-3 is over-expressed)
Assay: In vitro cell migration, trans-well assay
Type: cell-based
Details: DLD-1, control 0.1% DMSO, FIG. 3
Description: In order to analyze inhibitory activity against in vitro cell migration of the benproperine derivative according to the present invention, after DLD-1 cell (ATCC-CCL-221), which is the human colorectal cancer cell lines in which PRL-3, cancer metastasis-related genes, is over-expressed, was grown around by 90% on the culture plate containing RPMI medium, the medium was removed and the cell was washed with PBS. The washed cell was processed with trypsin-EDTA, cultured CO2 incubator at 37° C. for […], and then detached. The resultant cells in which 10% FBS-containing RPMI medium was added were collected in the falcon tube and the medium was removed by centrifugation. […] After the obtained cells in which FBS-free RPMI medium was added were suspended, the number of cells was counted using a hemocytometer.
The cells of 8×10^4 cells/200 μl were added to trans-wells which were placed on 24-well plates. […] The prepared sample was photographed with an inverted microscope (TE 300, Nikon, Japan) equipped with digital camera and the number of cells having moved was counted.
Inhibitory activity against cell migration of benproperine and pharmaceutically acceptable salt thereof in Formulas 2 to 4 according to the present invention was observed by the above method, and inhibition rate was calculated by the Mathematical Equation 1. […]

benproperine phosphate
inhibition of migration of colorectal cancer cell compared to control (5 μM): more than 80% | inhibition of migration of colorectal cancer cell compared to control (10 μM): more than 90%
